Here are results for three sequences from article PMC5626478.

Protein sequences, listed by entry. Tags and fused reporters are not part of them. Residues count along the entry.
UniProt Q71RC2, 1-286: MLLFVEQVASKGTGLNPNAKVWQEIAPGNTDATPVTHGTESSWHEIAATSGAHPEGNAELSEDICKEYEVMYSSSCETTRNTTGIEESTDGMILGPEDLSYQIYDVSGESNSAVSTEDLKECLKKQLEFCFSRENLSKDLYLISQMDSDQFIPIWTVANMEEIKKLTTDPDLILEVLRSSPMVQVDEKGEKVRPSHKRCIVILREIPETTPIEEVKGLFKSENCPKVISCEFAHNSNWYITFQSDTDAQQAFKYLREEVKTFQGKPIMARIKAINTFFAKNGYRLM

The series has as its target LARP4-NTD (1-286) (human) (UniProt Q71RC2). Description: EMSA. To be noted: EMSA as described in Yang et al. 2011, pH and temperature not given, protein in uM, recombinant protein, residues 1-286. In general terms: A gel shift assay detects complexes by their altered migration in electrophoresis.

A weaker result is weaker than the reference pair of the same experiment.

Take AAAAAAAAAAAAAAA [A15 2'-O-CH3]: for the setting “2'-O-methyl (at the 3' end)”, the binding result was “binds more weakly”.

Turning to AAAAAAAAAAAAAAA [A15 3'-PO4], the binding result (3'-phosphate) is “binds more weakly”.

In the case of UUUUUUUUUUUUUUU [U15 3'-OH], the binding result was “binds more weakly”.
